The other results are listed elsewhere or left out. These are further read-outs of the screen, such as a control signal, another cell line or another target. No call is given for them. Compounds called inactive in the main read-out are mostly missing here. The note in brackets gives the kind of curve behind each potency; many fits are weak.

A short description of the test: qHTS Assay for Lipid Storage Modulators in Drosophila S3 Cells.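 On cell number change: cells counted by Cell Tracker Red CMTPX staining in the red channel.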 To be noted: BODIPY lipid droplet fluorescence, 18-24 h; for cell number change: measured here: cell count max response, cells fed with added oleic acid. In a few lines:
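Drosophila S3 cells loaded with oleic acid (400 uM, as added) and compounds at several concentrations; lipid droplets imaged by 488-nm laser-scanning cytometry, 500–530 nm intensity and object ratio to cell channel. Percent activity normalized to 20 uM Triacsin C.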
For orientation: In qHTS, concentration-response curves come from the screen itself.

Where [1] appears, read: measured here: lipid fluorescence (Fed channel) AC50, cells fed with added oleic acid.
The mark [2] stands for this setting: measured here: cell number channel AC50, cells fed with added oleic acid.

For orientation: AC50 means the midpoint of the concentration-response curve, whichever way the signal moves. Turning to `COc1ccc(N2CCN(C(=O)c3ccc(CNS(=O)(=O)c4cccc(OC)c4)cc3)CC2)cc1`, the cell number change is -17.6%. Under setting [1], the AC50 was 25.9 µM [falling, partial curve, poor fit]. `Cc1ccc(C(C(=O)NC(C)(C)C)N(Cc2ccco2)C(=O)Cn2nnc(-c3cccs3)n2)cc1` (stereo unspecified): the cell number change was -31.1%. Further, the AC50 under setting [2] was 14.6 µM [falling, single point]. For the same compound, the AC50 under setting [1] is 16.4 µM [falling, partial curve].

In the case of `CCOC(=O)c1c(/N=C/N(C)C)sc2c1CCC2`, the cell number change came to 14.3%. Further, the AC50 under setting [1] was 29.1 µM [rising, partial curve, poor fit]. On to `CCC1(C)CC2(CCCN(CCC(=O)c3ccccc3)C2)CCO1` (stereo unspecified), for which the cell number change is -28.5%. Also, the half-maximal activity concentration (AC50) under setting [1] is 29.1 µM [falling, single point]. `CCOC(=O)c1c(NC(=O)CC2SC(=NC)N(C)C2=O)sc(C)c1C` (stereo unspecified): the AC50 reads like this: under setting [2], 0.731 µM [rising, full curve]; under setting [1], 1.64 µM [rising, partial curve]. As for `Cc1ccc2nc(NC(=O)COC(=O)c3ccco3)sc2c1`, the cell number change was 1.01%. In addition, under setting [2], the AC50 is 1.16 µM [rising, full curve, poor fit]. For the same compound, the AC50 under setting [1] is 0.259 µM [rising, full curve]. Regarding `O=C(CN1C(=O)S/C(=C\c2ccc(Cl)cc2)C1=O)NNC(=O)c1ccccc1O`, the cell number change was -33.2%. The AC50 under setting [2] was 4.11 µM [falling, full curve, poor fit]. The concentration at half-maximal activity (AC50) under setting [1] was 20.6 µM [falling, partial curve]. On to `CCN(CC)S(=O)(=O)c1ccc(OC(C)C)c(NC(=O)C2=COCCO2)c1`, for which the cell number change is -19.5%. Moreover, under setting [1], the AC50 was 7.31 µM [falling, partial curve]. With `CC(NC(=O)c1cc(COc2ccccc2)on1)c1nccs1` (stereo unspecified), the concentration at half-maximal activity (AC50) under setting [1] was 5.8 µM [rising, single point]. With `CN(C)CCCN(C(=O)c1ccc([N+](=O)[O-])s1)c1nc2cc3c(cc2s1)OCCO3`, the cell number change was -18.5%. Turning to `Cc1ccccc1Nc1nn2c(=O)c3ccccc3nc2s1`, the cell number change is -10.1%. For the same compound, the AC50 under setting [1] was 0.731 µM [rising, single point]. With `O=C(CN1CCC(C(=O)c2ccc3c(c2)OCCO3)CC1)NC1CCCC1`, the cell number change amounted to 8.16%. The AC50 under setting [1] is 6.51 µM [rising, partial curve, poor fit].

As for `O=C(NCc1ccc2c(c1)OCO2)c1ccc(NC(=O)C2CCCO2)cc1` (stereo unspecified), the cell number change is 7.82%. Also, the AC50 under setting [1] was 6.51 µM [rising, partial curve, poor fit]. Consider `Cc1ccc(-n2c(SCc3ccc(C#N)cc3)nnc2-c2ccccn2)cc1`, for which the cell number change amounted to 29.4%. The AC50 under setting [2] was 0.731 µM [rising, full curve, poor fit]. The AC50 under setting [1] was 5.17 µM [rising, full curve]. For `COc1cccc(Nc2nc(-c3ccccc3O)nc3ccccc23)c1`, the cell number change worked out at 13.8%. Further, the AC50 under setting [1] was 0.58 µM [rising, full curve, poor fit]. Consider `O=S(=O)(NC1CC1)c1ccc(Cl)cc1`, for which the cell number change came out at 0.293%. For the same compound, the AC50 under setting [1] was 18.4 µM [rising, single point]. `NC(=O)C1(N2CCCCC2)CCN(CC(=O)Nc2ccccc2-c2ccccc2)CC1`: the cell number change was found to be 15.7%. The AC50 under setting [1] is 13 µM [falling, partial curve]. As to `Clc1ccc(CSc2nnc(-c3ccncc3)s2)cc1`, the cell number change came to 14.5%. Besides, the AC50 under setting [2] was 6.51 µM [rising, single point]. Consider `COc1ccccc1CN(C)CC(=O)Nc1cccc(S(=O)(=O)N2CCCCC2)c1`, for which the AC50 under setting [1] is 32.6 µM [falling, partial curve, poor fit].

For `Cc1cc(C)cc(NC(=S)Nc2ccc(Cl)c(Cl)c2)c1`, the cell number change was -43.8%. Further, under setting [2], the AC50 is 35.5 µM [falling, single point]. Under setting [1], the AC50 is 17.8 µM [falling, single point]. With `CC(C)(C)NC(=O)CN(CCN1CCOCC1)C(=O)CNS(=O)(=O)c1ccccc1`, the cell number change was 7.39%. In addition, the AC50 under setting [1] was 29.1 µM [rising, single point]. Regarding `Cc1cc(C=O)c(C)n1-c1ccc(N2CCOCC2)c([N+](=O)[O-])c1`, the cell number change came to 10.1%. Also, under setting [1], the AC50 is 0.291 µM [falling, partial curve, poor fit]. As for `COc1ccc(S(=O)(=O)NCC(c2ccc(F)cc2)N2CCOCC2)cc1Br` (stereo unspecified), the cell number change was -8.42%. In addition, under setting [2], the AC50 was 1.3 µM [rising, partial curve]. Consider `COc1cc(OC)cc(-c2cc3nc(C)c(CCC(=O)NCc4ccccc4)c(C)n3n2)c1`, for which the cell number change is 12.1%. In addition, the AC50 under setting [2] is 0.146 µM [rising, full curve, poor fit]. Under setting [1], the AC50 is 0.146 µM [rising, full curve, poor fit]. Regarding `CCOC(=O)CC(=O)CSc1nc2sc(C)cc2c(=O)n1Cc1ccco1`, the cell number change is -5.31%. Moreover, under setting [1], the AC50 is 6.51 µM [rising, partial curve]. As to `CCOC(=O)N1CCN(c2ccc([N+](=O)[O-])cc2F)CC1C` (stereo unspecified), the cell number change was -38%. In addition, the half-maximal activity concentration (AC50) under setting [2] is 0.291 µM [falling, full curve, poor fit]. On to `COCc1cc(C)nc2sc(C(=O)Nc3ccccc3OC)c(N)c12`, for which the cell number change is -20.1%. Besides, the AC50 under setting [1] was 29.1 µM [falling, single point]. With `CC#CCCc1nc2ccccc2c(=O)n1N`, the cell number change worked out at 11.4%. In addition, the AC50 under setting [1] was 0.259 µM [rising, full curve, poor fit]. Consider `Cc1ccc(C(=O)n2ncn(C)c2=S)cc1`, for which, under setting [1], the AC50 is 29.1 µM [falling, partial curve]. With `O=C(Cc1ncc(C(F)(F)F)cc1Cl)NCc1ccco1`, the cell number change came to 27.2%. Consider `O=[N+]([O-])c1ccc(S(=O)(=O)N2CCN(Cc3c[nH]c4ccccc34)CC2)cc1`, for which the cell number change worked out at 30.3%. Besides, the AC50 under setting [2] was 4.61 µM [rising, full curve, poor fit]. Moreover, the AC50 under setting [1] was 20.6 µM [rising, single point]. In the case of `COc1ccc(-c2csc(Nc3ccc(O)cc3)n2)cc1`, the cell number change was -16.4%. As to `CCOC(=O)c1c(NC(=O)c2ccoc2C)sc2c1CCC2`, the cell number change was -14.6%. In addition, the AC50 under setting [1] is 0.411 µM [rising, full curve].

Regarding `CCOC(=O)Cn1c(=NC(=O)CN2C(=O)CCC2=O)sc2cc(S(N)(=O)=O)ccc21`, the cell number change was found to be 5.79%. Moreover, under setting [1], the AC50 was 32.6 µM [falling, single point]. `CCOC(=O)[C@H]1[C@H]2COc3ccc(C)cc3[C@@H]2N2C(=O)CN(Cc3ccc(C)cc3)C(=O)[C@@]12C`: the cell number change was -0.339%. As for `O=C(/C=C/c1cccc(C(F)(F)F)c1)Nc1cccc(C(F)(F)F)c1`, the AC50 under setting [1] was 14.6 µM [falling, partial curve, poor fit]. In the case of `COc1cccc(CN2CCNC(=O)C2CC(=O)N(C)C2CCCCC2)c1` (stereo unspecified), the cell number change was determined as 9.54%. Further, the AC50 under setting [1] was 29.1 µM [rising, single point]. Take `Cn1nnc2cc(C(=O)Nc3ccc(Cl)cc3)ccc21`: the cell number change was -3.58%. Moreover, the concentration at half-maximal activity (AC50) under setting [1] was 0.731 µM [falling, full curve, poor fit]. Turning to `COCc1nnc(NC(=O)CCS(=O)(=O)c2ccccc2)s1`, the cell number change amounted to 15.4%. Moreover, under setting [1], the AC50 is 20.6 µM [falling, single point]. Turning to `O=C(Nc1cccnc1)c1ccc2nc(-c3ccccc3)c(-c3ccccc3)nc2c1`, the cell number change is 17.7%. Besides, the AC50 under setting [1] is 0.116 µM [falling, full curve, poor fit].

Turning to `COc1ccc(NS(=O)(=O)c2ccc(C)c(C(=O)NCC(c3cccs3)N3CCOCC3)c2)cc1` (stereo unspecified), the cell number change came to 63%. Also, the AC50 under setting [2] is 2.06 µM [rising, full curve]. Consider `C=CCNC(=O)COC(=O)c1c2c(nc3ccccc13)CCC2`, for which the cell number change is -22.4%. As to `CCN(CC)c1nc2n(c(=S)n1)CCS2`, the cell number change stood at 17.4%. Moreover, the AC50 under setting [2] was 0.259 µM [rising, full curve].

With `CC(C)(C)OC(=O)CNC(=O)c1nc[nH]c1C(=O)N1CCN(c2ccccc2)CC1`, the cell number change came to 23.4%. The AC50 under setting [2] is 0.103 µM [rising, full curve, poor fit]. `O=C(c1cn[nH]c1)c1cc(F)ccc1O`: the cell number change is -0.458%. Moreover, under setting [1], the AC50 is 5.8 µM [falling, partial curve].

For `Cn1c(-c2ccc3c(c2)OCO3)cnc1NCc1cccc(Cl)c1`, the cell number change is -0.417%. Further, under setting [1], the AC50 is 0.517 µM [rising, single point]. Turning to `Cc1ccc(C(=O)N/C(=C\c2cccc([N+](=O)[O-])c2)C(=O)NCc2ccncc2)cc1`, the cell number change is -7.26%. Moreover, the AC50 under setting [1] is 0.92 µM [rising, full curve, poor fit].

On to `COc1ccc(OCC(=O)Nc2ccc3c(c2)nc(CCNC(C)=O)n3C)cc1`, for which the cell number change came to 9.01%. Turning to `Cc1c(Cl)cccc1NC(=O)C1=COCCO1`, under setting [2], the AC50 is 4.61 µM [rising, single point]. As to `CCN1C(=O)[C@H]2[C@@H](c3ccc(-c4ccc(F)cc4)cc3)N3CCCC[C@@]3(C(=O)OC)[C@H]2C1=O`, the cell number change is -36.3%. Moreover, under setting [2], the concentration at half-maximal activity (AC50) is 18.4 µM [falling, partial curve, poor fit]. The AC50 under setting [1] is 29.1 µM [falling, single point]. Turning to `CCN(CC(=O)Nc1c(C(=O)OC)[nH]c2ccc(C)cc12)c1ccc2c(c1)OCO2`, the cell number change is -31.1%. Further, the AC50 under setting [2] is 18.4 µM [falling, partial curve, poor fit]. Besides, the AC50 under setting [1] was 32.6 µM [falling, partial curve, poor fit]. Take `CCOC(=O)c1c(-c2ccc(C)o2)csc1NC(=O)CSc1nncs1`: the cell number change was -37.1%. Moreover, the AC50 under setting [2] is 2.91 µM [falling, partial curve, poor fit]. For the same compound, under setting [1], the AC50 is 14.6 µM [falling, partial curve, poor fit]. `CCN(CC)CCn1c(N)cc(=O)[nH]c1=O`: the cell number change amounted to 7.57%.

As to `COc1ccc(C2C(C#N)=C(N)N3C(=C2C#N)Sc2ccccc23)cc1` (stereo unspecified), the cell number change amounted to 17.1%. Further, under setting [1], the AC50 was 1.3 µM [rising, full curve]. As to `CCOC(=O)C(C)n1cnc2c(cnn2-c2ccc(Cl)cc2)c1=O` (stereo unspecified), the AC50 is 0.92 µM [rising, partial curve] under setting [2] and 0.13 µM [rising, full curve, poor fit] under setting [1].

With `CC(C)(C)c1ccc(CN(Cc2ccco2)Cc2nnnn2C2CCCC2)cc1`, the AC50 under setting [2] was 3.66 µM [rising, single point] and the AC50 under setting [1] was 23.1 µM [rising, single point]. Take `CC(NC(=O)C1CCCN(S(=O)(=O)c2cnc[nH]2)C1)c1ccccc1` (stereo unspecified): the cell number change was determined as 18.7%.

For the origin of these results see PubChem BioAssay AID2685 (National Center for Advancing Translational Sciences (NCATS), 2010).
